Reference: paper PMC9355564, “A network of cytosolic (co)chaperones promotes the biogenesis of mitochondrial signal-anchored outer membrane proteins” (eLife, 2022)
Results are given in words; binding and its absence hold for the method and conditions named. In cells and extracts the contact can be indirect. A result given as binding can be weak or reduced; the word gives no strength.

Assays:
Assay in all cases: pull-down; C-terminally 3HA-tagged proteins translated in vitro in yeast extract (from WT cells, or from cells depleted of Ydj1 and Sis1), pulled down with anti-HA beads; co-purified endogenous proteins in the eluate detected by western blot
[1] = biological target: T1, Msp1-3HA (full length) (S. cerevisiae) (UniProt P28737)
T1 sequence: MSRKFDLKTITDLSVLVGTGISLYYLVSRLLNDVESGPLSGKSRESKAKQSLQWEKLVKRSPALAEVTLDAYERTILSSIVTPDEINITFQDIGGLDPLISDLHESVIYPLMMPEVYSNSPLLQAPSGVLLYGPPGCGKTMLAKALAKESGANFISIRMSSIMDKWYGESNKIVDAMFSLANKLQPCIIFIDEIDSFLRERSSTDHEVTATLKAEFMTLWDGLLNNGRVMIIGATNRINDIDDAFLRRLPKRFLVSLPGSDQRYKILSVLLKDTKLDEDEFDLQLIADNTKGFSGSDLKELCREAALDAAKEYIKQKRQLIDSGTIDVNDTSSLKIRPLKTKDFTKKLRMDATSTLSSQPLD

[2] = biological target: T2, Tom70-3HA (full length) (S. cerevisiae) (UniProt P07213)
T2 sequence: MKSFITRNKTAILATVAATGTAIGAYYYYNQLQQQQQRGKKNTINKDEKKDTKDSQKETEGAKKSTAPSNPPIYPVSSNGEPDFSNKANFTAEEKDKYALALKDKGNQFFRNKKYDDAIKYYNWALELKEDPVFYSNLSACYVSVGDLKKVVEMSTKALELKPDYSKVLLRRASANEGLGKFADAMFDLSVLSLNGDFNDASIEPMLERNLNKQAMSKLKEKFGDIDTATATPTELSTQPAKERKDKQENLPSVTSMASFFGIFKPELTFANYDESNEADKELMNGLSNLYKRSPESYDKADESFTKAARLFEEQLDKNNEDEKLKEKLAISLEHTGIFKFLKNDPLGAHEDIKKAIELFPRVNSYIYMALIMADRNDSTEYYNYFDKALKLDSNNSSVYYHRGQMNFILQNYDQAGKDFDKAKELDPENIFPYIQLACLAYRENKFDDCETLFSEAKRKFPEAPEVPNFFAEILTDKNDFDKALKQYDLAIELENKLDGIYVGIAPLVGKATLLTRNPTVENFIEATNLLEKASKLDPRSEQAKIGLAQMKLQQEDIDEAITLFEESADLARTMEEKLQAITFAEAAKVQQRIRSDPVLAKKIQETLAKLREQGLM

[3] = biological target: T3, Mcr1-3HA (full length) (S. cerevisiae) (UniProt P36060)
T3 sequence: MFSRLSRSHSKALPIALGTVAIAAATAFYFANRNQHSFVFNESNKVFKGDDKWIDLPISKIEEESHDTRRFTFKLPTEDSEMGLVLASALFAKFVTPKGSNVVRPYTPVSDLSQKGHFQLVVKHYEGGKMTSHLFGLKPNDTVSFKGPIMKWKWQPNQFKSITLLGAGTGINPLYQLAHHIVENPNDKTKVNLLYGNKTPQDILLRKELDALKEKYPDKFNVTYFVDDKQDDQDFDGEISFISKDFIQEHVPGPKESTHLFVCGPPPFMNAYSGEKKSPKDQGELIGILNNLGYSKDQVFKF

binding [1]: binds weakly | binding [2]: binds weakly | binding [3]: binds weakly
Substance: Hsc82/Hsp82
